Data as given in the supplement of paper PMC6078165.

Tested on: Hs578T
Assay: relative JC-1 red fluorescence (viability) vs pre-drug, coculture with fibroblast (fraction); higher = more viable cancer cells
Protocol: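 JC-1 labelled TNBC cells cocultured 1:1 (1,500 cells each) with CellTrace Violet stained primary or stromal fibroblasts in 384-well plates in FluoroBrite medium, treated with one of 42 anticancer drugs at 0.1, 1, 10 or 100 uM. JC-1 red fluorescence (mitochondrial integrity in cancer cells only) was read by plate reader every 8 h for 72 h. Values are normalised to each well's pre-drug value. The stock of one drug was tenfold lower, so its dose labels may be too high.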

CC(=O)O[C@@]12CO[C@@H]1C[C@H](O)[C@@]1(C)C(=O)[C@H](O)C3=C(C)[C@@H](OC(=O)[C@H](O)[C@@H](NC(=O)OC(C)(C)C)c4ccccc4)C[C@@](O)([C@@H](OC(=O)c4ccccc4)[C@H]21)C3(C)C [Docetaxel]
relative JC-1 red fluorescence
Settings | 8 h | 16 h | 24 h | 32 h | 40 h | 48 h | 56 h | 64 h | 72 h
10 µM | 0.8886 | 0.81527 | 0.7901 | 0.732 | 0.646 | 0.6 | 0.594 | 0.569 | 0.581
100 µM | 0.905 | 0.745 | 0.67 | 0.601 | 0.52 | 0.472 | 0.456 | 0.433 | 0.435

relative JC-1 red fluorescence
Settings | 8 h | 16 h | 24 h | 32 h | 40 h | 48 h | 56 h | 64 h | 72 h
10 µM, coculture fibroblast: C12385 | 0.813 | 0.762 | 0.712 | 0.61 | 0.541 | 0.513 | 0.491 | 0.49 | 0.491
10 µM, coculture fibroblast: H6013 | 0.8658 | 0.85 | 0.821 | 0.793 | 0.765 | 0.761 | 0.762 | 0.773 | 0.762
10 µM, coculture fibroblast: H6019 | 0.812 | 0.75 | 0.713 | 0.625 | 0.592 | 0.566 | 0.531 | 0.529 | 0.521
10 µM, coculture fibroblast: H6076 | 0.917 | 0.883 | 0.851 | 0.8083 | 0.7587 | 0.763 | 0.767 | 0.771 | 0.786
10 µM, coculture fibroblast: H6231 | 0.899 | 0.812 | 0.743 | 0.704 | 0.63 | 0.6149 | 0.5779 | 0.559 | 0.559
10 µM, coculture fibroblast: HADF | 0.897 | 0.858 | 0.788 | 0.703 | 0.636 | 0.604 | 0.567 | 0.548 | 0.524
10 µM, coculture fibroblast: HCFa | 0.851 | 0.804 | 0.7144 | 0.6225 | 0.553 | 0.525 | 0.497 | 0.496 | 0.483
10 µM, coculture fibroblast: HCPF | 0.926 | 0.869 | 0.7967 | 0.725 | 0.652 | 0.627 | 0.602 | 0.56 | 0.531
10 µM, coculture fibroblast: HHSteC | 0.8912 | 0.867 | 0.824 | 0.742 | 0.686 | 0.659 | 0.652 | 0.653 | 0.636
10 µM, coculture fibroblast: HMF | 0.877 | 0.8517 | 0.814 | 0.775 | 0.715 | 0.7 | 0.683 | 0.664 | 0.644
10 µM, coculture fibroblast: HPFa | 0.948 | 0.877 | 0.881 | 0.811 | 0.764 | 0.729 | 0.706 | 0.694 | 0.664
10 µM, coculture fibroblast: HUF | 0.866 | 0.765 | 0.76 | 0.648 | 0.577 | 0.552 | 0.539 | 0.541 | 0.539
10 µM, coculture fibroblast: Hs27A | 0.919 | 0.861 | 0.797 | 0.709 | 0.649 | 0.632 | 0.603 | 0.5893 | 0.5593
10 µM, coculture fibroblast: Hs343T | 0.911 | 0.837 | 0.765 | 0.711 | 0.628 | 0.6 | 0.558 | 0.544 | 0.532
10 µM, coculture fibroblast: WS1 | 0.8211 | 0.7746 | 0.766 | 0.672 | 0.619 | 0.603 | 0.569 | 0.558 | 0.555
100 µM, coculture fibroblast: C12385 | 0.845 | 0.737 | 0.658 | 0.555 | 0.4788 | 0.44788 | 0.4128 | 0.388 | 0.375
100 µM, coculture fibroblast: H6013 | 0.883 | 0.8 | 0.757 | 0.75 | 0.724 | 0.731 | 0.729 | 0.742 | 0.737
100 µM, coculture fibroblast: H6019 | 0.798 | 0.694 | 0.628 | 0.5384 | 0.489 | 0.466 | 0.449 | 0.439 | 0.428
100 µM, coculture fibroblast: H6076 | 0.905 | 0.812 | 0.729 | 0.701 | 0.64 | 0.636 | 0.618 | 0.607 | 0.605
100 µM, coculture fibroblast: H6231 | 0.885 | 0.79 | 0.7005 | 0.646 | 0.5856 | 0.5516 | 0.52 | 0.4977 | 0.486
100 µM, coculture fibroblast: HADF | 0.9214 | 0.819 | 0.767 | 0.73 | 0.677 | 0.648 | 0.61 | 0.596 | 0.566
100 µM, coculture fibroblast: HCFa | 0.851 | 0.765 | 0.71 | 0.648 | 0.58 | 0.553 | 0.522 | 0.52 | 0.501
100 µM, coculture fibroblast: HCPF | 0.913 | 0.82374 | 0.748 | 0.692 | 0.613 | 0.559 | 0.534 | 0.49132 | 0.4548
100 µM, coculture fibroblast: HHSteC | 0.893 | 0.80377 | 0.725 | 0.675 | 0.6017 | 0.574 | 0.551 | 0.541 | 0.51
100 µM, coculture fibroblast: HMF | 0.895 | 0.778 | 0.704 | 0.664 | 0.579 | 0.548 | 0.508 | 0.483 | 0.466
100 µM, coculture fibroblast: HPFa | 0.9106 | 0.877 | 0.787 | 0.727 | 0.688 | 0.647 | 0.61 | 0.596 | 0.57
100 µM, coculture fibroblast: HUF | 0.866 | 0.752 | 0.726 | 0.619 | 0.559 | 0.524 | 0.497 | 0.491 | 0.49
100 µM, coculture fibroblast: Hs27A | 0.8662 | 0.84729 | 0.79 | 0.732 | 0.649 | 0.65 | 0.63 | 0.626 | 0.591
100 µM, coculture fibroblast: Hs343T | 0.922 | 0.763 | 0.7 | 0.667 | 0.58 | 0.538 | 0.475 | 0.446 | 0.424
100 µM, coculture fibroblast: WS1 | 0.856 | 0.749 | 0.656 | 0.537 | 0.452 | 0.415 | 0.37 | 0.352 | 0.333

The reference is the same well before dosing, and untreated signal decays as well.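 Fibroblast labels denote human fibroblasts, mainly primary ones from uterus (C12385, HUF), lung (H6013), bone (Hs27A), adrenal (HADF) and skin (WS1), plus mammary HMF and breast cancer-associated Hs343T. Cancer cells are basal-like or mesenchymal-like triple-negative breast cancer lines. A hit is a response shift exceeding 3x replicate standard deviation. The tissue of the other fibroblasts is not given here.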
